Our source for the AC50 values is PubChem BioAssay AID493014 (National Center for Advancing Translational Sciences (NCATS), 2011).

“And” between values parts separate entries of the source, which are not always exact repeats. Identical values can stand only once. The list shows a part of the results. Further columns of the screen follow, without active or inactive calls. Most of these compounds were active or inconclusive in the main read-out, so they are no random draw. Potencies come from curve fits of mixed quality, noted in brackets.

The assay in a line: qHTS Assay to Find Inhibitors of Chronic Active B-Cell Receptor Signaling. Conditions: ABC-DLBCL IkBa-CBG/CBR reporter, luminescence ratio (green luciferase fused to IkBa over red control in TMD8 lymphoma cells), 4 h. An outline of the steps: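 Cell line TMD8 (human ABC DLBCL), stably expressing tet-inducible CBG68-IkBa fusion and CBR; IMDM/0.5% FBS; cpd up to 46 uM; dox induction, 4 h, 37C/5% CO2; dual luminescence; green/red ratio; MG132 control.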

The mark [1] stands for this setting: measured here: CBR red luminescence, cell number.
Where [2] appears, read: measured here: IkBa-CBG green luminescence.

One may read the AC50 as the concentration at which the activity in the assay is half-maximal. Consider `CCc1nc(-c2cc3ccc(C)cc3[nH]c2=O)no1`, for which, under setting [1], the AC50 is 0.517 µM [rising, full curve, poor fit].
On the same count and under the same terms, next, `COc1ccccc1CNC(=O)CCCc1cn(C)c2ccccc12`: 20 µM [falling, partial curve, poor fit].
`Cc1ccc(S(=O)(=O)c2nnn3c2nc(Nc2cccc(C)c2)c2ccccc23)cc1`: the AC50 under setting [1] is 20.6 µM [falling, partial curve, poor fit].
`Cc1cc(Cl)ccc1NC(=O)c1cc(S(=O)(=O)N2CCOCC2)cn1C`: under setting [1], the AC50 is 3.16 µM [rising, partial curve, poor fit].
As for `O=C(CSc1n[nH]c(-c2cccs2)n1)N1CCN(S(=O)(=O)c2ccccc2)CC1`, the concentration at half-maximal activity (AC50) under setting [1] is 20 µM [rising, single point].
With `CC(C)(C)C(=O)/C(=C\c1ccc([N+](=O)[O-])cc1)n1cncn1`, the half-maximal activity concentration (AC50) reads like this: under setting [1], 7.31 µM [falling, partial curve]; under setting [2], 10.3 µM [rising, partial curve, poor fit].
As to `COc1ccc(C)cc1NC(=O)C(OC(=O)CNC(=O)c1ccc(Br)cc1)c1ccccc1` (stereo not given), under setting [1], the AC50 was 32.6 µM [rising, partial curve, poor fit].
The same measure, in the same setting: next, `COc1cccc(N2CCN(C(=O)c3cc4ccc(OC)cc4[nH]3)CC2)c1`: 14.1 µM [falling, partial curve, poor fit].
With `CC1=NN(/C(=N\c2nnc(C)s2)Nc2ccc(C(C)(C)C)cc2)[C@H](c2ccc(C)cc2)S1`, under setting [2], the AC50 was 29.1 µM [rising, partial curve, poor fit].
On to `COc1ccc(CN2CCN(Cc3cc(=O)oc4cc(C)ccc34)CC2)c(OC)c1OC`, for which the half-maximal activity concentration (AC50) under setting [1] is 14.1 µM [falling, single point].
Consider `CN(C)c1ccc(C(CNS(=O)(=O)c2ccc(F)cc2)c2c[nH]c3ccccc23)cc1` (stereo not given), for which the AC50 under setting [1] was 9.2 µM [falling, partial curve, poor fit].
On the same count and under the same terms, next, `CC(=O)NC(=S)Nc1cccc2ccc(C)nc12`: 7.08 µM [falling, partial curve]; `CN1C(=O)/C(=C/c2cn(CC(=O)N3CCCCC3)c3ccccc23)c2ccccc21`: 13 µM [falling, partial curve, poor fit].
Still for that read-out and setting: next, `Cc1ccc([N+](=O)[O-])c(-c2n[nH]c(=S)n2-c2cccc(Cl)c2)c1`: 0.112 µM [rising, full curve, poor fit]; `O=C(N/N=C/C(Br)=C/c1ccccc1)c1ccccc1F`: 14.1 µM [falling, partial curve]; `O=C(N/N=C/c1ccccc1)c1ccc2c(c1)OCO2`: 4.47 µM [falling, partial curve, poor fit].
As to `COC(=O)c1nn(Cc2ccccc2)c(=O)c2ccccc12`, the AC50 under setting [1] was 2.59 µM [falling, partial curve, poor fit].
The same measure, in the same setting: next, `CN1c2ccc([N+](=O)[O-])cc2N(C)C1(C)c1ccccc1` (stereo not given): 15.8 µM [rising, partial curve, poor fit]; `C/C(CC(=O)Nc1ccc(Cl)cc1Cl)=N\NC(=O)c1cnccn1`: 10 µM [falling, partial curve, poor fit].
Same read-out and setting: in the case of `Cc1nnc(NC(=O)c2cccc(S(=O)(=O)N3CCc4ccccc43)c2)s1` it was 0.0731 µM [rising, full curve, poor fit]; in that of `CC1(C)CC(NS(=O)(=O)OCC(Cl)(Cl)Cl)c2cc(C#N)ccc2O1` (stereo not given), 15.8 µM [falling, partial curve, poor fit].
With `COc1ccc(CNC(=O)COC(=O)c2c(C)nn(-c3ccccc3)c2C)cc1OC`, the concentration at half-maximal activity (AC50) under setting [1] is 7.31 µM [falling, partial curve, poor fit].
Still for that read-out and setting: next, `CCN1CCN(CCCNC(=O)c2ccc(/C=C3/Oc4ccccc4N(Cc4cccc(C)c4)C3=O)cc2)CC1`: 5.62 µM [rising, full curve].
The same measure, in the same setting: next, `CCC(/C=N/NC(=O)C(=O)N/N=C/C(CC)CC)CC`: 0.0517 µM [rising, full curve, poor fit].
For `COc1ccc(/C=N/Nc2ccccn2)cc1O`, the AC50 under setting [1] was 35.5 µM [falling, single point].
Same read-out and setting: next, `COc1ccc(NC(=O)COc2ccc(/C=N/O)cc2OC)cc1`: 11.2 µM [falling, single point].
Still for that read-out and setting: in the case of `Oc1c(C=Nc2cccc3cccnc23)sc2ccccc12` it was 11.6 µM [falling, partial curve, poor fit]; in that of `CCOC(=O)/C(=C/c1ccc(N2CCC(c3ccccc3)=N2)cc1)C(C)=O`, 4.11 µM [rising, partial curve, poor fit]; in that of `CC(=O)/C(N=Nc1ccc(OC(F)(F)F)cc1)=C(\C)O`, 35.5 µM [rising, single point].
The same measure, in the same setting: in the case of `Cc1cc(C)c(C)c(C(=O)c2ccccc2C(=O)O)c1C` it was 11.2 µM [rising, partial curve, poor fit]; in that of `CN1C=C/C(=C\c2cc[n+](C)c3ccccc23)c2ccccc21`, 1.26 µM [falling, full curve, poor fit]; in that of `COC(=O)/C=C(\Oc1ccccc1)C1(O)CCCCC1`, 35.5 µM [rising, single point].
With `Cc1ccc(NC(=O)Cn2nnc(C(=O)NCc3ccccc3)c2N)cc1C`, the AC50 under setting [1] is 23.1 µM [rising, single point].
As for `Cc1cc(C)c2ccc(/C=N/O)nc2c1O`, the AC50 runs as follows: under setting [1], 11.2 µM [rising, partial curve, poor fit]; under setting [2], 11.2 µM [falling, partial curve].
Turning to `CCCCn1c2ccccc2c2nnc(SCC(=O)NC3=NN=C(c4ccccc4)CS3)nc21`, the AC50 under setting [1] is 20.6 µM [falling, partial curve].
The same measure, in the same setting: next, `COc1cccc(NC(=O)CN(C)C(C)C(=O)Nc2cc([N+](=O)[O-])ccc2Cl)c1` (stereo not given): 35.5 µM [falling, single point]; `CN(C)C(=O)c1cccc(-c2csc(N3CCC(C(N)=O)CC3)n2)c1`: 29.1 µM [rising, single point] and 5.17 µM [rising, full curve, poor fit].
`COc1ccc(S(=O)(=O)NCc2ccccc2Cl)cc1OC`: the AC50 under setting [1] is 23.1 µM [rising, single point].
Still for that read-out and setting: next, `CCOC(=O)c1sc(NC(=O)CSc2nnc(C)s2)c(C(=O)OCC)c1C`: 2.51 µM [falling, partial curve, poor fit]; `NC(=O)c1c(NC(=O)C2CCCO2)sc2c1CCCC2` (stereo not given): 6.51 µM [falling, single point]; `Cc1cc(C)cc(OCC(=O)N(Cc2cccs2)C2CCS(=O)(=O)C2)c1` (stereo not given): 25.9 µM [rising, single point].
With `O=C(OCCN=C1NS(=O)(=O)c2ccccc21)C1CC(=O)N(c2ccc3ccccc3c2)C1` (stereo not given), the AC50 under setting [1] is 1.84 µM [rising, full curve].
In the case of `O=C(N/N=C/C(c1ccccc1)c1ccccc1)c1ccccc1F`, the AC50 under setting [1] is 35.5 µM [falling, single point].
Same read-out and setting: next, `CCOC(=O)NC(=O)CN1C(=O)NC(C)(c2ccccc2)C1=O` (stereo not given): 3.16 µM [falling, single point].
As for `Cc1ccc(S(=O)(=O)Nc2ccccc2-c2ccccc2NS(=O)(=O)c2ccc(C)cc2)cc1`, the AC50 under setting [1] was 12.6 µM [falling, partial curve, poor fit].
For the compound `O=c1c(-c2cccc(Cl)c2)c[nH]n1-c1ccccc1`, the AC50 under setting [1] was 0.708 µM [falling, full curve].
As for `O=C(Nc1ccccc1C(=O)N/N=C/c1ccccc1)c1ccco1`, the AC50 under setting [1] is 4.47 µM [falling, partial curve].
As for `CN1OC2C(=O)N(c3ccccc3)C(=O)C2C1c1ccc(F)cc1` (stereo not given), the AC50 under setting [1] was 10 µM [rising, partial curve, poor fit].
In the case of `Cc1csc(NC(=O)CS(=O)(=O)Cc2ccccc2)n1`, the half-maximal activity concentration (AC50) under setting [1] is 20 µM [falling, partial curve, poor fit].
Same read-out and setting: in the case of `COc1cc(CNC(C)c2ccccc2)cc(Br)c1OCc1ccccc1` (stereo not given) it was 35.5 µM [falling, single point].
The same measure, in the same setting: next, `CC1CN(CCOc2ccc(Cl)c(Cl)c2)CC(C)O1` (stereo not given): 35.5 µM [rising, single point]; `Cc1[nH]c2ccccc2c1CCNC(=O)c1ccc2nccnc2c1`: 12.6 µM [falling, partial curve, poor fit]; `O=C(CCCN1C(=O)CSc2ncccc21)N1CCN(c2cccc(C(F)(F)F)c2)CC1`: 29.1 µM [falling, single point].
For `COc1ccccc1CNC(=O)CN(C)CC(=O)Nc1cccc(F)c1`, the AC50 under setting [1] is 22.4 µM [rising, single point].
On the same count and under the same terms, in the case of `CSc1cccc(NC(=S)N2CCC(N(C)C3CCCCC3C)CC2)c1` (stereo not given) it was 11.2 µM [falling, partial curve, poor fit]; in that of `O=C(CSc1ccc(-c2ccccc2)nn1)c1cccs1`, 11.2 µM [falling, partial curve].
Still for that read-out and setting: in the case of `Clc1ccc(-c2csc(N/N=C/c3ccco3)n2)cc1` it was 10 µM [falling, partial curve]; in that of `COC(=O)CCn1nnc(-c2ccc(C)cc2)n1`, 1.16 µM [rising, full curve].
Consider `COc1ccc2c(c1)Cc1sc(NC(=O)c3cccs3)nc1-2`, for which, under setting [1], the AC50 was 7.31 µM [falling, partial curve, poor fit].
On to `Clc1ccc(Sc2cc(Cl)c(-c3ccccc3)nn2)cc1`, for which the AC50 under setting [1] is 0.562 µM [falling, full curve, poor fit].
For the compound `Cc1cc(Br)cc(C)c1NC(=S)NC(=O)CC(C)C`, the AC50 under setting [1] is 0.461 µM [falling, partial curve, poor fit].
The same measure, in the same setting: in the case of `CCCC(=O)C1C(=O)CC(CC(C)SCC)CC1=O` (stereo not given) it was 2.91 µM [rising, single point]; in that of `CCOC(=O)c1sc(=NC(=O)c2ccc(S(=O)(=O)N(C)c3ccccc3)cc2)n(C)c1C`, 14.1 µM [rising, single point].
